# PubChem BioAssay AID686943 – Drosophila RNAi Screening Center | 2013
# Aim: 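Knockdowns that increase or decrease active ERK after insulin receptor stimulation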 (primary screen)
# Cells: Drosophila S2R+ haemocyte-like cells expressing YFP-tagged ERK (Rolled)
# Reagents: long dsRNA against Drosophila genes
# Challenge: insulin stimulation versus unstimulated cells; dose and duration not given
# Detection: 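Per-plate z-scores of phospho-ERK immunostaining normalised to YFP-tagged ERK, measured with and without insulin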
# Reading the numbers: replicate 1, z-score of dpERK with insulin and replicate 2, z-score of dpERK with insulin: higher = more active ERK per ERK-YFP after insulin; replicate 1, z-score of dpERK under basal conditions: higher = more basal active ERK per ERK-YFP; replicate 1, z-score of ERK-YFP with insulin: higher = more YFP-tagged ERK signal
# The screen tested about 23,000 reagents; below is an unselected part of those with a known target gene and a result. 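Extra replicates exist only for a retested subset of genes; insulin dose and duration not given; both raised and lowered dpERK matter.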 Names joined by + are all predicted targets of the reagent. Reagent sequences are not shown. Not given: the amount of reagent, the time to read-out.
target gene,DRSC id,"replicate 1, z-score of dpERK with insulin","replicate 2, z-score of dpERK with insulin","replicate 1, z-score of dpERK under basal conditions","replicate 1, z-score of ERK-YFP with insulin"
Apoltp (Apolipoprotein lipid transfer particle),DRSC02508,1.55,0.6,0.72,0.56
WDR79 (WD repeat domain 79),DRSC03159,0.36,-0.12,-0.09,0.88
CG31404,DRSC15497,0.29,0,-0.13,-0.2
Sox15 (Sox box protein 15),DRSC07555,-0.18,-1.35,-1.08,-4.39
tRNA:Leu-CAA-2-3 (transfer RNA:Leucine-CAA 2-3),DRSC13633,0.34,-0.06,-2.36,-0.23
InR (Insulin-like receptor),DRSC16717,-1.14,-4.78,-0.48,0.17
CG32246,DRSC08115,-0.76,-0.84,-0.74,0.89
CG8089,DRSC07074,-0.28,0.65,0.42,0.64
Yp2 (Yolk protein 2),DRSC18732,-0.5,0.66,-0.48,0.08
CG32547,DRSC19263,-0.89,0.77,-0.68,0.69
CG32547,DRSC19265,1.85,1.13,-0.1,0.16
CG32547,DRSC19474,0.17,-0.13,-0.52,0.44
CG32547,DRSC19626,-2.49,-0.33,0.68,-0.37
St3 (Sulfotransferase 3),DRSC04098,0.16,0.58,-0.19,0.67
St3 (Sulfotransferase 3),DRSC04505,-0.39,-0.14,0.15,0.45
CG4461,DRSC10423,0.4,0.37,0.43,0.25
Tmem63 (Transmembrane protein 63),DRSC06063,0.2,0.12,-0.23,0.28
Golgin245 (Golgin-245),DRSC04374,0.52,0.8,0.34,0.05
Golgin245 (Golgin-245),DRSC22012,0.26,1.21,0.91,0.93
CG10214,DRSC14213,-0.57,0.38,-0.18,-0.18
Cap-D2 (CAP-D2 condensin subunit),DRSC15401,-0.28,0.7,1.72,0.13
geko,DRSC10044,0.03,-0.4,0.06,-0.59
geko,DRSC10045,-0.05,-0.27,-0.45,0.25
CG12016 + Dpm2,DRSC08224,-1.31,1.05,-1.15,2.06
NetB (Netrin-B),DRSC20262,0.14,0.31,-0.4,0.13
CG15445,DRSC20517,-0.19,-0.21,-0.55,-0.43
CG13028,DRSC09908,1.08,0.2,0.83,0.32
CG4950,DRSC10463,0.04,-0.84,-0.87,-0.29
CG6927,DRSC18407,0.81,-0.21,0.24,-0.07
CG14075,DRSC10080,-0.09,-0.08,-0.02,0.09
CG7304,DRSC10804,0.62,-0.08,0.73,0.02
Mp20 (Muscle protein 20),DRSC07474,0.02,0.35,0.13,0.38
CG15865,DRSC19733,0.28,0.48,-0.07,0.73
CG12128 + CG1407,DRSC06446,-0.2,-0.12,0.92,-0.18
Rab26,DRSC11837,-0.44,-2.49,-0.26,2.09
Rab26,DRSC11838,0.48,-0.23,0.51,-0.02
Rab26,DRSC11839,0.76,-0.41,0.7,-0.69
CG42713,DRSC01050,-0.67,-0.65,-0.06,0
rudhira,DRSC19821,-1.51,-2.26,-2.14,-0.86
rudhira,DRSC22111,0,0.5,-0.44,-0.67

Individual results from the entries so far.
rudhira [DRSC22111], replicate 2, z-score of dpERK with insulin: 0.5
Result of NetB (Netrin-B) [DRSC20262] under “replicate 1, z-score of ERK-YFP with insulin”: 0.13
Result of tRNA:Leu-CAA-2-3 (transfer RNA:Leucine-CAA 2-3) [DRSC13633] under “replicate 1, z-score of dpERK under basal conditions”: -2.36
Entry of CG31404 [DRSC15497] under “replicate 1, z-score of dpERK with insulin”: 0.29
Rab26 [DRSC11839], replicate 1, z-score of ERK-YFP with insulin: -0.69
Entry of Golgin245 (Golgin-245) [DRSC04374] under “replicate 1, z-score of ERK-YFP with insulin”: 0.05
